At least one peptide structure holds a part that was inferred or is arguable (an end, a ring closure or a residue). Where no end group is shown, it is not given here.
Experiments:
[1] = In vitro peptide-LPS binding assay (streptavidin beads, LAL test); set-up: species or system Pseudomonas aeruginosa; details: biotinylated peptide on streptavidin beads, 0-2.5 μM
[2] = system: Staphylococcus aureus ATCC 19636; assay: Peritoneal sepsis mouse model, survival; format: in vivo, ICR mice
S. aureus [3] = assay: Killing kinetics at 1xMBC; format: cell-based, Staphylococcus aureus; details: 4 μM peptide (MBC)
A. baumannii = format: cell-based, Acinetobacter baumannii; details: all tested colistin-resistant A. baumannii
Excerpt: Clinical isolates of Pseudomonas aeruginosa (NHRI-01, NHRI-02 AND NHRI-04) were obtained through the program of Taiwan Surveillance of Antimicrobial Resistance, National Health Research Institutes, Taiwan, Acinetobacter baumannii (ATCC 17989, ATCC 17978 CR, ATCC19606, ATCC 19606 CR, TCGH 45530 AND TCGH 46709) were obtained from Tzu-Chi Buddhist General Hospital in Taiwan, and clinical isolates (TCGH 1 45530 AND TCGH 46709) were identified using the Vitek system (Biomerieux Vitek, Inc., MO, USA). A. baumannii is defined as multidrug-resistant when the organism is resistant to piperacillin, piperacillin-tazobactam, ampicillin/sulbactam, imipenem, ceftazidime, gentamicin, amikacin, tetracycline, chloramphenicol, ciprofloxacin, and cotrimoxazole. Susceptibility to colistin was determined using the broth-dilution method, in accordance with the guidelines of the Clinical and Laboratory Standards Institute.
All peptides were purchased from Yao-Hong Biotechnology Inc. (Taipei, Taiwan). Vendors provided data of peptide characterizations, including HPLC and Mass. Antimicrobial activity was determined as described with some modifications as detailed below. […]

S. aureus [4] = assay: SYTOX Green uptake (membrane permeabilization); format: cell-based, Staphylococcus aureus; details: peptide at MBC
P. aeruginosa [5] = assay: SYTOX Green uptake (membrane permeabilization); format: cell-based, Pseudomonas aeruginosa; details: 2 μM peptide
pSUPER plasmid DNA = assay: Gel retardation assay (DNA binding); details: 30 minutes, 37° C., 1% agarose gel
P. aeruginosa [6] = assay: Killing kinetics at 1xMBC; format: cell-based, Pseudomonas aeruginosa; details: 2 μM peptide (MBC)
P. aeruginosa [7] = assay: Effect of LPS and LPS antibody on bactericidal activity; format: cell-based, Pseudomonas aeruginosa; details: 2 μM peptide
[8] = system: Staphylococcus aureus ATCC 19636; assay: Bacterial load in infected mice; format: in vivo, ICR mice; details: blood, liver and spleen, 10 mg/kg at 1 h, sampled 4 h post-inoculation
K. pneumonia [9] = assay: Killing kinetics at 1xMBC; format: cell-based, Klebsiella pneumoniae; details: 4 μM peptide (MBC)
[10] = system: Klebsiella pneumoniae Xen39; assay: IVIS imaging of in vivo antimicrobial activity; set-up: species or system mice; details: 10 mg/kg at 1 h, imaging 4 h post-inoculation
E. coli [11] = assay: Killing kinetics at 1xMBC; format: cell-based, Escherichia coli; details: 4 μM peptide (MBC)
K. pneumonia [12] = assay: SYTOX Green uptake (membrane permeabilization); format: cell-based, Klebsiella pneumoniae; details: 4 μM peptide
E. coli [13] = assay: SYTOX Green uptake (membrane permeabilization); format: cell-based, Escherichia coli; details: 4 μM peptide
[14] = In vitro peptide-Lipid A binding assay (streptavidin beads, LAL test); set-up: species or system Escherichia coli; details: biotinylated peptide on streptavidin beads, 0-2.5 μM
[15] = LPS/Lipid A competition assay (ELISA plate); format: binding; details: HBc147-183 (10 μM), E. coli Lipid A 0 to 10 μg/ml

Sequence: TVVRRRGRSPRRRTPSPRRRRSQSPRRRRSQSRESQC [HBc147-183]
- binding to LPS [1]: direct binding
- survival rate after 7 days ([2]; 10 mg/kg i.p. at 1 h post-inoculation): 100%
- survival rate after 7 days ([2]; 10 mg/kg i.p. at 1.5 h post-inoculation): 70%
- survival rate after 7 days ([2]; 10 mg/kg i.p. at 2 h post-inoculation): 40%
- time to complete killing (S. aureus [3]): 120 min
- MBC (A. baumannii): 0.5 to 1 µM
- membrane permeabilization (S. aureus [4]): without any apparent development of membrane permeabilization
- membrane permeabilization (P. aeruginosa [5]): significant degree of membrane permeabilization
- N/P ratio at which plasmid DNA was completely retarded (pSUPER plasmid DNA): 1
- time to killing (P. aeruginosa [6]): ≤ 20 min
- neutralization of bactericidal activity by anti-LPS antibody (P. aeruginosa [7]): cannot sufficiently neutralize
- bactericidal activity in presence of LPS (P. aeruginosa [7]; LPS from P. aeruginosa or E. coli at 50 μg/ml, 3 hours): significantly reduced
- bacterial load [8]: ~10^4 cfu/ml
- reduction of bacterial load vs PBS control [8]: 100 fold
- time to killing (K. pneumonia [9]): 180 min
- bioluminescence of treated mice [10]: very weak
- time to killing (E. coli [11]): 180 min
- membrane permeabilization (K. pneumonia [12]): not able to induce membrane permeabilization
- membrane permeabilization (E. coli [13]): not able to induce membrane permeabilization
- binding to Lipid A [14]: direct binding
- binding of peptide to LPS with increasing concentrations of Lipid A [15]: significantly decreased

Reference: US10214564B2, “Antimicrobial peptides derived from hepatitis B virus core protein arginine-rich domain” (priority 2013, dated 2019)
